Source: US4388236A, “Enkephalin-like compounds in bovine adrenal medulla” (Hoffmann-La Roche Inc., priority 1982, dated 1983)
At least one structure is not confirmed: it was looked up by name or label, or the drawing left a doubt.

Tested on: mice
Assay: Tail flick response (analgesic assay)
Assay type: in vivo
Conditions: individual mice, intracerebral ventrical; Met Enk 120nm, Acetylcholine 20ng, Beta-endorphin 4.5nm, Arg6-Phe7 met-enkephalin 6 n moles
Procedure: For the analgesic assay, mice were injected (intracerebral ventrical) with 6 n moles of the synthetic peptide (Tyr-Gly-Gly-Phe-Met-Arg-Phe). The tail flick response assay was carried out according to the method of Dayton, et al., Proc. Soc. […] The tail flick response (analgesic activity) was measured prior to injection and at 2,5 and 10 minutes post injection time. Results are tabulated in Table V. Further results are given in Inturris, et. al., Proc. Nat'l. Acad. Sci. (U.S.A.), 77,5512 (1980).

CC(=O)OCC[N+](C)(C)C [Acetylcholine]
Response (analgesic activity): Pos.
